Experimental findings from the supplement of paper PMC3334620 are described below.

Over roughly 33,000 sequences, “E-score (-0.5 to 0.5)” has its median near -0.0059; the highest 2% begin near 0.26. The list shows a part of the results.

The target in the assay is T1, Cin5 (UniProt P40917).
T1 sequence: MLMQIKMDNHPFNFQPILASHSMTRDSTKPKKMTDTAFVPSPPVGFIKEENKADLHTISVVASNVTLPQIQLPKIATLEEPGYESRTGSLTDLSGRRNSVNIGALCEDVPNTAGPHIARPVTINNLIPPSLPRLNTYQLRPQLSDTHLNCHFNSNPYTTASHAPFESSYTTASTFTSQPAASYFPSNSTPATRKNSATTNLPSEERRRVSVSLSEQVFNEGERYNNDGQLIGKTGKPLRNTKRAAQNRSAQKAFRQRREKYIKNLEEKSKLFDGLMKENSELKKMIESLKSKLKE
The experiment in a line: PBM E-score (8-mer binding enrichment) (E-score (-0.5 to 0.5)); higher = stronger / more preferred TF binding. The settings on record: protein concentration: 100 nM; construct: GST-full length. The method in brief: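 GST-tagged yeast TFs (full-length or DNA-binding domain) were made by PURExpress in vitro transcription/translation and applied at about 100-200 nM to universal all-10-mer Agilent arrays. The arrays were made double-stranded by primer extension, on fresh or once-stripped slides. Bound protein was detected with fluorescent anti-GST, and scans were normalised with masliner. Each ungapped eight-base word, pooled with its reverse complement, received an E-score (modified Wilcoxon-Mann-Whitney statistic) from the Universal PBM Analysis Suite.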
Take CCGCCCGG: the “PBM E-score” value is -0.0176.
In the case of GAGCAGTA, the “PBM E-score” value was -0.00544.
To GCCTCAGC belongs -0.143; to AATTATGC, 0.171.
As to CTCGTGTC, the “PBM E-score” value is -0.147.
As for CTACTTTA, the “PBM E-score” value was 0.0575.
Under TGAGTCAA stands -0.0173.
Under AGCCAGCA stands -0.141; under AACGGTAC, 0.199; under AATGATCA, 0.05.
As for GCATTCGC, the “PBM E-score” value is -0.157.
To ATTGGCTC belongs 0.0785.
Consider CGAAGGTC, for which the “PBM E-score” value was -0.192.
Under ATCGGGGG stands -0.314.
Consider ACGCCCTC, for which the “PBM E-score” value is -0.0682.
With AGCGAAAT, the “PBM E-score” value came to 0.0278.
Turning to GCGAAAGA, the “PBM E-score” value was 0.055.
Consider GAATACAA, for which the “PBM E-score” value was 0.205.
To GACAAAAA belongs 0.0976.
Take CGTTGCGC: the “PBM E-score” value is -0.0509.
In the case of CATTAACC, the “PBM E-score” value was 0.123.
Regarding ATCAGTCG, the “PBM E-score” value is 0.142.
Turning to ATGAATTA, the “PBM E-score” value was found to be 0.097.
With CCTACGTC, the “PBM E-score” value was -0.116.
For the sequence ACTGTTCT, the “PBM E-score” value was found to be 0.181.
Take AAAACCAA: the “PBM E-score” value is -0.0754.
Consider ATTCACTC, for which the “PBM E-score” value turned out to be 0.0516.
For the sequence CATTCCCG, the “PBM E-score” value came out at 0.128.
GGGGAGTA: the “PBM E-score” value is -0.0349.
For the sequence ATACTTGG, the “PBM E-score” value is -0.0222.
Under AATGGGTG stands 0.182; under ATCTATGG, -0.121.
Under ACGAGACA stands 0.00599.
To GTGTCAAA belongs -0.00832.
As for AAAGGCCG, the “PBM E-score” value is -0.193.
With CCATTGGG, the “PBM E-score” value is -0.215.
To GGCAGTAC belongs -0.0716; to ATTTCAAG, 0.0882.
On to GCCGGTAC, for which the “PBM E-score” value is -0.179.
To AAGAGAGA belongs -0.113; to GCGCATCC, -0.0649.
Under GTATACAA stands 0.166; under AAAAGCTT, -0.127.
Regarding CAGTACAA, the “PBM E-score” value came out at 0.0288.
Regarding ACATGTCC, the “PBM E-score” value stood at 0.0675.
To AATCTCAC belongs -0.00066; to GTACGGGA, -0.145; to CAGTGATA, 0.0486.
On to AATTTAAG, for which the “PBM E-score” value worked out at 0.155.
On to AATTCCAG, for which the “PBM E-score” value is 0.234.
As to CATCCTCA, the “PBM E-score” value was -0.0377.
Under AATTGTAG stands 0.109; under CCGCGAAG, -0.0304.
Turning to AAAAGCGG, the “PBM E-score” value is -0.114.
To CGACGCCA belongs -0.0698.
For the sequence AGTGTCCA, the “PBM E-score” value was -0.00164.
With AAGACAGG, the “PBM E-score” value is -0.0302.
With ACCTCGAT, the “PBM E-score” value is 0.0677.
As to GAGAGTCC, the “PBM E-score” value was -0.18.
With CTTTATGA, the “PBM E-score” value is -0.0656.
Turning to AAATAAAG, the “PBM E-score” value came to 0.0387.
As for ATCACGAA, the “PBM E-score” value stood at 0.114.
On to TCACTAAA, for which the “PBM E-score” value worked out at 0.13.
As for AGCACAGG, the “PBM E-score” value worked out at 0.0522.
Under CGACTAAA stands -0.0518.
AGAACTGC: the “PBM E-score” value is -0.168.
Regarding AGATCACG, the “PBM E-score” value was 0.0854.
As for GACAGTTA, the “PBM E-score” value was determined as 0.0897.
As for TCCGCGAA, the “PBM E-score” value worked out at 0.0615.
As to CCGGTCCA, the “PBM E-score” value was -0.314.
AGCTTAGG: the “PBM E-score” value came to 0.109.
In the case of CAGGTCCG, the “PBM E-score” value was -0.132.
For the sequence ACCTAGAC, the “PBM E-score” value is -0.126.
Under AGTAGGTC stands -0.131; under CCAGGTGC, -0.145.
With AGGTCCCA, the “PBM E-score” value was -0.0786.
As to AGTAGGAA, the “PBM E-score” value was -0.115.
To CGGGGGAA belongs -0.147; to CTCACCTA, -0.0108; to CACGTTTA, -0.107.
With GGTGTGCA, the “PBM E-score” value was -0.238.
Take TACTCCTA: the “PBM E-score” value was found to be 0.066.
For the sequence GTGAACCA, the “PBM E-score” value stood at 0.0277.
Consider CTAGTTCC, for which the “PBM E-score” value is -0.053.
To CTCCAAAC belongs 0.0165; to GTCATAGA, 0.0655; to CCGTGAAG, -0.21.
ACGTACAT: the “PBM E-score” value turned out to be 0.175.
On to ATTGGTGG, for which the “PBM E-score” value is 0.113.
CATCGGTA: the “PBM E-score” value was -0.0459.
To CTTAATCC belongs -0.0181; to GCAGTCCC, -0.317; to GGGGTGAA, -0.0833.
For CTTTCTGC, the “PBM E-score” value turned out to be 0.107.
For the sequence GTTCTTAA, the “PBM E-score” value was -0.00461.
As for AACTATAG, the “PBM E-score” value amounted to 0.051.
As for GGTGCACC, the “PBM E-score” value was -0.128.
On to CAGAATCA, for which the “PBM E-score” value amounted to 0.0356.
Consider CTCGACCA, for which the “PBM E-score” value is -0.282.
Consider CCATGCGC, for which the “PBM E-score” value was found to be 0.0317.
With AATTGGAC, the “PBM E-score” value is 0.167.
With AGGACCCA, the “PBM E-score” value is -0.183.
ACGCAGTC: the “PBM E-score” value is -0.23.
For GGCTACGA, the “PBM E-score” value is -0.115.
In the case of CATCATCC, the “PBM E-score” value is 0.178.
To AATGTACA belongs 0.114; to CCTAGTAA, -0.0612.
For ATTGCTCG, the “PBM E-score” value is 0.0561.
CTTTCAAA: the “PBM E-score” value stood at 0.162.
For the sequence CCGTCTAC, the “PBM E-score” value is -0.0256.
